Test results: the supplement of paper PMC12889115
Some of the results follow. Values are raw readings; no control value is given beside them.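 Primary screen: polymyxin B was added at a level permeabilizing Salmonella outer membranes while sparing inner membranes. DMSO wells, both with and without polymyxin B, established maximum growth. Plate-to-plate variation meant each plate was ranked on its own, and the lowest-OD600 compounds were selected as hits.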

Test system: Salmonella enterica serovar Typhimurium SL1344
Assay: bacterial growth OD600 after 18 h with compound and polymyxin B; higher = more bacterial growth (less inhibition)
Details: 50 µM, Mueller-Hinton broth

Compound	bacterial growth OD600 (polymyxin B 1 µg/mL)	bacterial growth OD600 (polymyxin B 0.75 µg/mL)
CCOC(=O)C1(Cc2ccccc2F)CCCN(Cc2csc(C(C)=O)c2)C1 (stereo unspecified)	0.767	–
Cc1ccccc1Oc1ncccc1CNC(=O)CCc1cn[nH]c1	1.04	–
COCc1noc(-c2ccc(NCCSc3nccn3C)nc2)n1	0.973	–
CC(C)NC1CC(=O)N(Cc2cccc(F)c2)C1 (stereo unspecified)	0.965	–
Cc1cc(C)n2nc(C(=O)N3CCC(CO)(Cc4ccccc4Cl)CC3)cc2n1	–	0.826
CCOC(=O)C1(Cc2cccc(Cl)c2)CCCN(C(=O)c2ccco2)C1 (stereo unspecified)	0.48	–
O=C(NCc1ccc(F)cc1)c1ccccc1OC1CCN(C(=O)c2cccnc2)CC1	1.22	–
O=C(NC1CCCN(Cc2ccccc2F)C1)c1cnn(Cc2ccccc2)c1 (stereo unspecified)	0.97	–
Cc1cccc(CNC(=O)C2CC23CCN(C(=O)c2cccc(-n4cccn4)c2)CC3)n1 (stereo unspecified)	–	1.01
COc1ccc(OCC(O)CN2CCC(O)CC2)c(CN(C)C2CCCCC2)c1 (stereo unspecified)	0.926	–
CCn1nc(C)c(CNC2CCN(c3ccc(NC(=O)Cc4ccc(OC)cc4)cc3)CC2)c1C	–	0.92
CCn1ccnc1CN(C)CC1CCCN(CCc2ccc(OC)cc2)C1 (stereo unspecified)	–	0.782
Cc1nccn1-c1ccc(NC(=O)C2CCCN(C/C=C/c3ccco3)C2)cc1 (stereo unspecified)	–	0.836
CC(C)CN1CCC(C2CCN(S(=O)(=O)Cc3ccccc3)C2)CC1 (stereo unspecified)	–	0.809
C=CCN(CC=C)Cc1nc(-c2ccc(OCC)cc2)oc1C	–	0.748
CC1CCCCN1C(=O)c1ccc(OC2CCN(C(=O)C3CC3)CC2)cc1 (stereo unspecified)	0.857	–

Compound	bacterial growth OD600 (polymyxin B 1 µg/mL)	bacterial growth OD600 (polymyxin B 0.75 µg/mL)
COc1ccc(CCN(C)C(=O)COc2ccc(N3CCN(c4ccccn4)CC3)nn2)cc1OC	–	0.993
CC(C)n1cc(C(=O)NCC2CCCCC2)c(=O)c(C(=O)N2CCSCC2)c1	–	0.928
COc1cc(CC2(CCC(=O)NCCc3nc4cc(Cl)ccc4[nH]3)CCC(=O)N2)ccc1F (stereo unspecified)	–	0.772
OC(c1ccc2c(c1)CN(Cc1ccc3c(c1)OCCO3)CCO2)c1c(F)cccc1Cl (stereo unspecified)	–	0.622
COc1ccc(C2c3[nH]c4ccccc4c3CCN2C(=O)c2cc(C(C)=O)n[nH]2)c(F)c1 (stereo unspecified)	0.57	–
CCOc1ccc(CN2CCOc3ccc(CN4CCC(O)(c5cccnc5)CC4)cc3C2)cc1	–	1.01
COc1ccc(CCNC(=O)CCC2(Cc3ccc(Cl)cc3)CCC(=O)N2)cc1OC (stereo unspecified)	–	0.881
COCC1CCCN(C(=O)C2CCCN(c3nc(C)c4ccc(OC)cc4n3)C2)C1 (stereo unspecified)	–	0.704
COc1ccccc1-c1cn2c(C(=O)NC3CCOC(C)(C)C3)csc2n1 (stereo unspecified)	1.33	–
COc1cccc(OCc2nc(C(=O)N(C)C3CCCCC3)co2)c1	0.916	–
O=C(Cc1cccnc1)N1CCC(C2CCN(c3ncccn3)CC2)C1 (stereo unspecified)	0.897	–
COc1ccc(OC)c(Cc2nnc(CCC(=O)NC3C4CC5CC(C4)CC3C5)o2)c1 (stereo unspecified)	0.78	–
COCCN1CCCC2(CCN(C(=O)c3ccc(Cl)s3)C2)C1=O (stereo unspecified)	0.852	–
CCS(=O)(=O)c1ncc(CN2CCCC(c3cccc(C)c3)C2)n1CCOC (stereo unspecified)	1.08	–
COc1cc(OC)c(OC)cc1CN1CCOc2ccc(C(O)CCc3ccccc3)cc2C1 (stereo unspecified)	–	0.008

Taken from above:
Value of COc1cc(OC)c(OC)cc1CN1CCOc2ccc(C(O)CCc3ccccc3)cc2C1 (stereo unspecified) under bacterial growth OD600 (polymyxin B 0.75 µg/mL): 0.008
Value of COc1ccccc1-c1cn2c(C(=O)NC3CCOC(C)(C)C3)csc2n1 (stereo unspecified) under bacterial growth OD600 (polymyxin B 1 µg/mL): 1.33
